According to the supplement of paper PMC12823440, “Inhibitors supercharge kinase turnover through native proteolytic circuits” (Nature, 2025):
Structures can show the parent of a compound that is named as a salt. This is one part of the list. The calls rarely recur for the same compound in another form.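 In K562 cells expressing nanoluciferase-fused kinases, luminescence was recorded at 4 h intervals between 2 and 18 h, normalized as percent of control with DMSO at 100% and a positive control at 0%. A significant (2 sigma) signal drop marks a time point as decreased. The authors' rule for a hit is not shown and takes in more than the number of time points.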

The chains behind the UniProt entries cited, without tags or fusion partners. Where a name states a change or a piece, a line headed by the entry shows the natural chain unless it says otherwise.
UniProt Q15208: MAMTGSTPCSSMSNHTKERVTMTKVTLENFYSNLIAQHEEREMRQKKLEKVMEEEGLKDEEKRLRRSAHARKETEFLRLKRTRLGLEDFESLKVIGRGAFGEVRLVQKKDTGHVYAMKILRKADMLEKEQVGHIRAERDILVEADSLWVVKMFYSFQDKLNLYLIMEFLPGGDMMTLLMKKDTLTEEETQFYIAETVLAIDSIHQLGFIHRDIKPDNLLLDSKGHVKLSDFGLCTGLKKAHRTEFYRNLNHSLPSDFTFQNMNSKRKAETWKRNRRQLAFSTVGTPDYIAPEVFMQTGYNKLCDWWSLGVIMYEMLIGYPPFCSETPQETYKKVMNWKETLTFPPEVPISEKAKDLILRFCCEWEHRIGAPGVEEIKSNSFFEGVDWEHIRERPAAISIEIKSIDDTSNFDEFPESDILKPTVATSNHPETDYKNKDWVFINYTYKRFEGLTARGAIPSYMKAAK
UniProt P42680: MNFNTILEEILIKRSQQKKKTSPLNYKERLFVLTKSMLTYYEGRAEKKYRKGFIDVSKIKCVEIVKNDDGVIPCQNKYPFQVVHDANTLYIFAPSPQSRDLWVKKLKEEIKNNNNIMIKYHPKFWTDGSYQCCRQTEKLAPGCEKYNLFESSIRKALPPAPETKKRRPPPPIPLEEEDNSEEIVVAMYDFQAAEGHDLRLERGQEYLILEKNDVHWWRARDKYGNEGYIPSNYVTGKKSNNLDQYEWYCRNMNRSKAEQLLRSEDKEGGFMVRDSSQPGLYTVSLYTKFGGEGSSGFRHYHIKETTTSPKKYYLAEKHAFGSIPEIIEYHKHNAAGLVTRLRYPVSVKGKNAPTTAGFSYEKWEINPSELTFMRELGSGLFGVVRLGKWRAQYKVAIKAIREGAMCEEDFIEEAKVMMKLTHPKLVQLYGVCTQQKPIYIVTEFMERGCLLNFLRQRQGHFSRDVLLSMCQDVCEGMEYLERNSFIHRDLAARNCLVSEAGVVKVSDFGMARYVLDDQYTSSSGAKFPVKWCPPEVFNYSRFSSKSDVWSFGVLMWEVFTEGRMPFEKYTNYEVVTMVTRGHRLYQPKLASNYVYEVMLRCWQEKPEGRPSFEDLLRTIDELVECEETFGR
UniProt P43403: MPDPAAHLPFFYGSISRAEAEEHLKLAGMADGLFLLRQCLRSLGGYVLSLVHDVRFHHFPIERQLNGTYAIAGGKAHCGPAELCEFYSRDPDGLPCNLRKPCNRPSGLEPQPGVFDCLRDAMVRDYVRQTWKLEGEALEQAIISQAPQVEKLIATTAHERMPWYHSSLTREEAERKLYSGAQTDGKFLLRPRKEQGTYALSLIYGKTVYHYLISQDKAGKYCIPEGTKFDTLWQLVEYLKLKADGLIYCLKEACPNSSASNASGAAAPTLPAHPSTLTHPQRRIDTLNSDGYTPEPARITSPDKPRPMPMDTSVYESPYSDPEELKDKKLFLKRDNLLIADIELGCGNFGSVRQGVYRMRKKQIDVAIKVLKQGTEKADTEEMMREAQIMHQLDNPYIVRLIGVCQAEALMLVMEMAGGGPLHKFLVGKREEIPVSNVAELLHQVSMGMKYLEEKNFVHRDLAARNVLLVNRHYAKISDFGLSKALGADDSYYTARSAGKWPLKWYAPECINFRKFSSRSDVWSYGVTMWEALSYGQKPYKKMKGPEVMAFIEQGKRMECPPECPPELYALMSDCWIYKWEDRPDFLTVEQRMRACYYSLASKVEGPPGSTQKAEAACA
UniProt P00519, whole entry: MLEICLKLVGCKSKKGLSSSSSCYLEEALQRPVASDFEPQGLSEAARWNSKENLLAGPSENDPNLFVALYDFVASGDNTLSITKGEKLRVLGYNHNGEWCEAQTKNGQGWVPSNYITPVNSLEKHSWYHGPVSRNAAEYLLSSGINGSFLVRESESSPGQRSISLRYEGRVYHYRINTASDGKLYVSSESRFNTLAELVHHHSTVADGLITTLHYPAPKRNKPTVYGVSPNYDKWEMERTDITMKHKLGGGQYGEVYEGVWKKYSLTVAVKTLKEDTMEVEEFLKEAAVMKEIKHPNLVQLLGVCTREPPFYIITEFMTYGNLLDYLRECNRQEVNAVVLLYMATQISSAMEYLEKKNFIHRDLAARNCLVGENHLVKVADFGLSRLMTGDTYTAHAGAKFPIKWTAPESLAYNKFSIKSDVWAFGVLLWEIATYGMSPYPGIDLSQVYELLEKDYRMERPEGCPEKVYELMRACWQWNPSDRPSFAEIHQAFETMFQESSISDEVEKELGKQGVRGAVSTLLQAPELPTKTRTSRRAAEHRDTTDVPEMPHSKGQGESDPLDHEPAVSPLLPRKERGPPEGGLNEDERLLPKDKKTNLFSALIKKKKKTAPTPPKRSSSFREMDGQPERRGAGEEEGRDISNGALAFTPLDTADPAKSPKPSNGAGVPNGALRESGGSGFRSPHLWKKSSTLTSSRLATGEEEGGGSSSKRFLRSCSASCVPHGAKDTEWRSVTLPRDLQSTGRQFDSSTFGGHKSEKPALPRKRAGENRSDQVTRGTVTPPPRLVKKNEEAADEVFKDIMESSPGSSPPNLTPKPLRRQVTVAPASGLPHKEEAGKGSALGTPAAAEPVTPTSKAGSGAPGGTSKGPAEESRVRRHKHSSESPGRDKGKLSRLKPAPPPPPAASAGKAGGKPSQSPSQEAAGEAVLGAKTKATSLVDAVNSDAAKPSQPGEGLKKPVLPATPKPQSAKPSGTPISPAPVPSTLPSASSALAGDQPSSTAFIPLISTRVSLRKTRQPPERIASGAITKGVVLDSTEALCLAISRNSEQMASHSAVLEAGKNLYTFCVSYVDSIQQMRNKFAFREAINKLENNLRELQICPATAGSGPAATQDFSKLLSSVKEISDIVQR
UniProt P31749: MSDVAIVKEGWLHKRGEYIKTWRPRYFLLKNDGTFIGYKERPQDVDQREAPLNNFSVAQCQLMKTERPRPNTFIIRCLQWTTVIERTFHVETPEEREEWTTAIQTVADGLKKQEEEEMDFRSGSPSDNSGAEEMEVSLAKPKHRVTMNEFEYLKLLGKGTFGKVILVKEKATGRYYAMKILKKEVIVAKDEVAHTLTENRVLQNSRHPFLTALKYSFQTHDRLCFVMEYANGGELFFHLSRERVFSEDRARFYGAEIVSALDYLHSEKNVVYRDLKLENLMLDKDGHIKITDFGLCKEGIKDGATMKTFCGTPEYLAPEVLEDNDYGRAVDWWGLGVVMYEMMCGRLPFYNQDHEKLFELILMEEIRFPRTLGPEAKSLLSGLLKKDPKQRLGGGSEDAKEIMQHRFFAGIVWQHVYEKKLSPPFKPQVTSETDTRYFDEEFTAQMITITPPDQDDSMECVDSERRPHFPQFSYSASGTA
UniProt Q9UM73: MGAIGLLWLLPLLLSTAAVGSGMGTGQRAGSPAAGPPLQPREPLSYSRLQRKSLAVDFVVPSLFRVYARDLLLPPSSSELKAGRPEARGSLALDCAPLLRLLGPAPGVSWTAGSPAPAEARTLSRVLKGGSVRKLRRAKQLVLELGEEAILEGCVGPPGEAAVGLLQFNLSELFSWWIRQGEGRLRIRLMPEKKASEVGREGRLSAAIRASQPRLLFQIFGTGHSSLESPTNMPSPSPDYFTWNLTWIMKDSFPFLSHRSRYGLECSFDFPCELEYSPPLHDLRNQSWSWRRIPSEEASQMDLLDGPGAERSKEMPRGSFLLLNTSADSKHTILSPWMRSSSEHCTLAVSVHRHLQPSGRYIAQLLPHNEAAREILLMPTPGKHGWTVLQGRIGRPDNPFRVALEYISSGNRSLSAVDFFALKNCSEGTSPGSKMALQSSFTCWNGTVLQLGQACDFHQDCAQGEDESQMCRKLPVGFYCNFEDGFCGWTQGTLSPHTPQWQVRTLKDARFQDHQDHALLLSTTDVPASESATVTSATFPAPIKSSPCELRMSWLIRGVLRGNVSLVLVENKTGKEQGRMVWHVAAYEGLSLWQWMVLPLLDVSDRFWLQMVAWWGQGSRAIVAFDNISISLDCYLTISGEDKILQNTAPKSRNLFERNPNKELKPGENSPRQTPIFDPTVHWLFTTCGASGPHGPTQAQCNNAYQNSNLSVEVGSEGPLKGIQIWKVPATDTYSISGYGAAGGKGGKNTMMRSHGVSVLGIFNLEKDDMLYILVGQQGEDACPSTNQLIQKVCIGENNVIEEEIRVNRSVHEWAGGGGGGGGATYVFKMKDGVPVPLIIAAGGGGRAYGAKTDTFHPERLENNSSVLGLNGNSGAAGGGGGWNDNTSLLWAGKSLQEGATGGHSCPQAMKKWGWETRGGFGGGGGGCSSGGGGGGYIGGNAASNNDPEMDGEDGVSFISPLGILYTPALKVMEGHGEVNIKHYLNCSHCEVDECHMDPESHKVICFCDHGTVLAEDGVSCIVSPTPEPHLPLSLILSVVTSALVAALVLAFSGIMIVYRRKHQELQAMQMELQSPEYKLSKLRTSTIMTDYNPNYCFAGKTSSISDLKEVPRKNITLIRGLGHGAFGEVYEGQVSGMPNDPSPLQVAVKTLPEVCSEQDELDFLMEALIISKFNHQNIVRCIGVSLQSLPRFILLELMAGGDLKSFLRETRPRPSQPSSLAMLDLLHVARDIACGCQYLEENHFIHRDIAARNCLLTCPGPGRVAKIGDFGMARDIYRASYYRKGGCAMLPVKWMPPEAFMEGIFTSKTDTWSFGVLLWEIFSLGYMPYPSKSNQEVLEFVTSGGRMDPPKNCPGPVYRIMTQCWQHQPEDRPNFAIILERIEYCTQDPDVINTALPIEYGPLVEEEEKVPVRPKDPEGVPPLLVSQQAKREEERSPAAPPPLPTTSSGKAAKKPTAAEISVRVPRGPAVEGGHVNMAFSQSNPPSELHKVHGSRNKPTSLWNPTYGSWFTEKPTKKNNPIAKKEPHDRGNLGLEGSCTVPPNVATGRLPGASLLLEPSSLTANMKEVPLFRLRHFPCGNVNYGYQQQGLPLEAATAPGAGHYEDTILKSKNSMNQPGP
UniProt P10398: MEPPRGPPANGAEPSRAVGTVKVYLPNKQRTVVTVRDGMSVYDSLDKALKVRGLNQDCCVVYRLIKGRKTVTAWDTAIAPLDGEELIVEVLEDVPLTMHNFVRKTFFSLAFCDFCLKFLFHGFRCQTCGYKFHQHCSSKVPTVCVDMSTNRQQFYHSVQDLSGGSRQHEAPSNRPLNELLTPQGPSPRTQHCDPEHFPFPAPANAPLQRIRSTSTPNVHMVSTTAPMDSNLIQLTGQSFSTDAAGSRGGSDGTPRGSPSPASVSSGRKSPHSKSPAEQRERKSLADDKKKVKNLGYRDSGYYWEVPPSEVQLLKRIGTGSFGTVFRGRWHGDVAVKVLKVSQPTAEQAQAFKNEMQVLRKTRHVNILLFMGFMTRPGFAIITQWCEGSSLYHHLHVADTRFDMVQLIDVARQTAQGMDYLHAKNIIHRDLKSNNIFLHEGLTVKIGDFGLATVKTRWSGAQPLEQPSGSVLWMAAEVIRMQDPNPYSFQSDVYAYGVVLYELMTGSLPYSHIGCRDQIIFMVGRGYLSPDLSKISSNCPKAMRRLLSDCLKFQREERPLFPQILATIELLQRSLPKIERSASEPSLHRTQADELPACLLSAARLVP
UniProt P15056, whole entry, looked up: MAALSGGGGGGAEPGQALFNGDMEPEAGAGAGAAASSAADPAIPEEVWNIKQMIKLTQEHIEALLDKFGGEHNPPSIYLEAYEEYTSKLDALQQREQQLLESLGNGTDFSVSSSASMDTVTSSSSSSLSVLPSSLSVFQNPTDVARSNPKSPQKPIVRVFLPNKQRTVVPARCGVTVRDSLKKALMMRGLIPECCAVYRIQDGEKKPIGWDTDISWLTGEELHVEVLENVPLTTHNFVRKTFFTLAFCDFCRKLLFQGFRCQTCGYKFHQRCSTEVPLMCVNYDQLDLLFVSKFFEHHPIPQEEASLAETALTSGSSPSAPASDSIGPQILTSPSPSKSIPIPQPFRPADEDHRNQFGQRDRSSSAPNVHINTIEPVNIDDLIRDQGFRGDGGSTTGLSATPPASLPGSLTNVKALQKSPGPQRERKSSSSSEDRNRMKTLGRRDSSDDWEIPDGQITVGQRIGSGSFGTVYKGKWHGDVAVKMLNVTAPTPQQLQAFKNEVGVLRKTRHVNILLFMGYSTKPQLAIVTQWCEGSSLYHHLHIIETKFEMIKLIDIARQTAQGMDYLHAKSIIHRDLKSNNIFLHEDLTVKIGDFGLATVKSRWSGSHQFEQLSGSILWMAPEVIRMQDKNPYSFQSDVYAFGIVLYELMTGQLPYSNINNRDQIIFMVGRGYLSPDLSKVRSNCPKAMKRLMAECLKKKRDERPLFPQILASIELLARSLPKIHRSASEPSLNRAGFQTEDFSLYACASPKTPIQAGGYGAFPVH

Assays:
Conditions in all cases: K562; 2-18 h
STK38 = STK38 (UniProt Q15208); test: kinase-Nluc reporter destabilization hit call (1 = scored as downregulated) (binary); higher = compound decreases kinase abundance
TEC = TEC (UniProt P42680); test: as above
TYK2 = TYK2 (UniProt P29597); test: as above
ULK3 = ULK3 (UniProt Q6PHR2); test: as above
YES1 = YES1 (UniProt P07947); test: as above
ZAP70 = ZAP70 (UniProt P43403); test: as above
ABL1 = ABL1 (UniProt P00519); test: number of time points (of 5) at which kinase-Nluc abundance scored as decreased, DMSO-normalised (count); higher = more persistent destabilization
AKT1 = AKT1 (UniProt P31749); test: as above
ALK = ALK (UniProt Q9UM73); test: as above
ARAF = ARAF (UniProt P10398); test: as above
AURKA = AURKA (UniProt O14965); test: as above
AURKB = AURKB (UniProt Q96GD4); test: as above
AURKC = AURKC (UniProt Q9UQB9); test: as above
BLK = BLK (UniProt P51451); test: as above
BMX = BMX (UniProt P51813); test: as above
BRAF = BRAF (UniProt P15056); test: as above
BRAF_V600E = test: as above
BTK = BTK (UniProt Q06187); test: as above
SYK = SYK (UniProt P43405); test: kinase-Nluc reporter destabilization hit call (1 = scored as downregulated) (binary); higher = compound decreases kinase abundance
ZAK = ZAK (UniProt Q9NYL2); test: as above

COc1cc(Nc2ncc3c(n2)-c2ccc(Cl)cc2C(c2c(F)cccc2OC)=NC3)ccc1C(=O)O [Alisertib] (2.5 µM)
inactive: kinase-Nluc reporter destabilization hit call (STK38) 0 | kinase-Nluc reporter destabilization hit call (TEC) 0 | kinase-Nluc reporter destabilization hit call (TYK2) 0 | kinase-Nluc reporter destabilization hit call (ULK3) 0 | kinase-Nluc reporter destabilization hit call (YES1) 0 | kinase-Nluc reporter destabilization hit call (ZAP70) 0
0: number of time points (ABL1) | number of time points (AKT1) | number of time points (ALK) | number of time points (ARAF) | number of time points (AURKA) | number of time points (AURKB) | number of time points (AURKC) | number of time points (BLK) | number of time points (BMX) | number of time points (BRAF) | number of time points (BRAF_V600E) | number of time points (BTK)

COc1ccc2c(NC(=O)Nc3cccc(C(F)(F)F)n3)ccnc2c1 (10 µM)
0: number of time points (ABL1) | number of time points (AKT1) | number of time points (ALK) | number of time points (ARAF) | number of time points (AURKA) | number of time points (AURKB) | number of time points (AURKC) | number of time points (BLK) | number of time points (BMX) | number of time points (BRAF) | number of time points (BRAF_V600E) | number of time points (BTK)
inactive: kinase-Nluc reporter destabilization hit call (STK38) 0 | kinase-Nluc reporter destabilization hit call (TEC) 0 | kinase-Nluc reporter destabilization hit call (TYK2) 0 | kinase-Nluc reporter destabilization hit call (ULK3) 0 | kinase-Nluc reporter destabilization hit call (YES1) 0 | kinase-Nluc reporter destabilization hit call (ZAP70) 0

NC(=O)c1ccc(-c2nc(-c3ccccn3)c(-c3ccc4c(c3)OCO4)[nH]2)cc1 (10 µM)
inactive: kinase-Nluc reporter destabilization hit call (STK38) 0 | kinase-Nluc reporter destabilization hit call (SYK) 0 | kinase-Nluc reporter destabilization hit call (TEC) 0 | kinase-Nluc reporter destabilization hit call (TYK2) 0 | kinase-Nluc reporter destabilization hit call (ULK3) 0 | kinase-Nluc reporter destabilization hit call (YES1) 0 | kinase-Nluc reporter destabilization hit call (ZAK) 0 | kinase-Nluc reporter destabilization hit call (ZAP70) 0
0: number of time points (ABL1) | number of time points (AKT1) | number of time points (ALK) | number of time points (ARAF) | number of time points (AURKA) | number of time points (AURKB) | number of time points (AURKC) | number of time points (BLK) | number of time points (BMX) | number of time points (BRAF_V600E) | number of time points (BTK)

COc1ccc(Oc2cc(NCCC(F)(F)F)c3ncc(-c4ccc(C(=O)NC5CC5)c(C)c4)n3n2)c(F)c1F (2.5 µM)
0: number of time points (ABL1) | number of time points (AKT1) | number of time points (ALK) | number of time points (ARAF) | number of time points (AURKA) | number of time points (AURKB) | number of time points (AURKC) | number of time points (BLK) | number of time points (BMX) | number of time points (BRAF) | number of time points (BTK)
inactive: kinase-Nluc reporter destabilization hit call (STK38) 0 | kinase-Nluc reporter destabilization hit call (SYK) 0 | kinase-Nluc reporter destabilization hit call (TEC) 0 | kinase-Nluc reporter destabilization hit call (TYK2) 0 | kinase-Nluc reporter destabilization hit call (ULK3) 0 | kinase-Nluc reporter destabilization hit call (YES1) 0 | kinase-Nluc reporter destabilization hit call (ZAK) 0 | kinase-Nluc reporter destabilization hit call (ZAP70) 0

CC#CC(=O)N[C@H]1CCCN(c2c(F)cc(C(N)=O)c3[nH]c(C)c(C)c23)C1 [Branebrutinib] (10 µM)
0: number of time points (ABL1) | number of time points (AKT1) | number of time points (ALK) | number of time points (ARAF) | number of time points (AURKA) | number of time points (AURKB) | number of time points (AURKC) | number of time points (BLK) | number of time points (BRAF) | number of time points (BRAF_V600E) | number of time points (BTK)
inactive: kinase-Nluc reporter destabilization hit call (STK38) 0 | kinase-Nluc reporter destabilization hit call (SYK) 0 | kinase-Nluc reporter destabilization hit call (TEC) 0 | kinase-Nluc reporter destabilization hit call (TYK2) 0 | kinase-Nluc reporter destabilization hit call (ULK3) 0 | kinase-Nluc reporter destabilization hit call (YES1) 0 | kinase-Nluc reporter destabilization hit call (ZAK) 0 | kinase-Nluc reporter destabilization hit call (ZAP70) 0

Cn1nc(C(C)(C)C)cc1NC(=O)Nc1ccc(Oc2ccncc2)cc1 (10 µM)
inactive: kinase-Nluc reporter destabilization hit call (STK38) 0 | kinase-Nluc reporter destabilization hit call (SYK) 0 | kinase-Nluc reporter destabilization hit call (TEC) 0 | kinase-Nluc reporter destabilization hit call (TYK2) 0 | kinase-Nluc reporter destabilization hit call (ULK3) 0 | kinase-Nluc reporter destabilization hit call (YES1) 0 | kinase-Nluc reporter destabilization hit call (ZAK) 0 | kinase-Nluc reporter destabilization hit call (ZAP70) 0
0: number of time points (ABL1) | number of time points (AKT1) | number of time points (ALK) | number of time points (ARAF) | number of time points (AURKA) | number of time points (AURKB) | number of time points (AURKC) | number of time points (BLK) | number of time points (BMX) | number of time points (BTK)
2: number of time points (BRAF_V600E)

COc1cc(C(=O)NC2CCN(C)CC2)c(F)cc1Nc1ncc2c(n1)N(C1CCCC1)CC(F)(F)C(=O)N2C [TAK-960 (dihydrochloride)] (2.5 µM)
0: number of time points (ABL1) | number of time points (AKT1) | number of time points (ALK) | number of time points (ARAF) | number of time points (AURKA) | number of time points (AURKB) | number of time points (AURKC) | number of time points (BLK) | number of time points (BMX) | number of time points (BRAF) | number of time points (BTK)
inactive: kinase-Nluc reporter destabilization hit call (STK38) 0 | kinase-Nluc reporter destabilization hit call (SYK) 0 | kinase-Nluc reporter destabilization hit call (TEC) 0 | kinase-Nluc reporter destabilization hit call (TYK2) 0 | kinase-Nluc reporter destabilization hit call (ULK3) 0 | kinase-Nluc reporter destabilization hit call (YES1) 0 | kinase-Nluc reporter destabilization hit call (ZAK) 0 | kinase-Nluc reporter destabilization hit call (ZAP70) 0

C=CC(=O)N1C[C@H](Nc2ncnc3[nH]ccc23)CC[C@@H]1C [Ritlecitinib] (10 µM)
0: number of time points (ABL1) | number of time points (AKT1) | number of time points (ALK) | number of time points (ARAF) | number of time points (AURKA) | number of time points (AURKB) | number of time points (AURKC) | number of time points (BLK) | number of time points (BRAF) | number of time points (BRAF_V600E) | number of time points (BTK)
inactive: kinase-Nluc reporter destabilization hit call (STK38) 0 | kinase-Nluc reporter destabilization hit call (SYK) 0 | kinase-Nluc reporter destabilization hit call (TEC) 0 | kinase-Nluc reporter destabilization hit call (TYK2) 0 | kinase-Nluc reporter destabilization hit call (ULK3) 0 | kinase-Nluc reporter destabilization hit call (YES1) 0 | kinase-Nluc reporter destabilization hit call (ZAK) 0 | kinase-Nluc reporter destabilization hit call (ZAP70) 0

NC(=O)c1ccc2nc(-c3ccc(Oc4ccc(Cl)cc4)cc3)[nH]c2c1 (10 µM)
0: number of time points (ABL1) | number of time points (AKT1) | number of time points (ALK) | number of time points (ARAF) | number of time points (AURKA) | number of time points (AURKB) | number of time points (AURKC) | number of time points (BLK) | number of time points (BMX) | number of time points (BRAF) | number of time points (BTK)
inactive: kinase-Nluc reporter destabilization hit call (STK38) 0 | kinase-Nluc reporter destabilization hit call (SYK) 0 | kinase-Nluc reporter destabilization hit call (TEC) 0 | kinase-Nluc reporter destabilization hit call (TYK2) 0 | kinase-Nluc reporter destabilization hit call (ULK3) 0 | kinase-Nluc reporter destabilization hit call (YES1) 0 | kinase-Nluc reporter destabilization hit call (ZAK) 0 | kinase-Nluc reporter destabilization hit call (ZAP70) 0

COCCOc1cc2nccc(Nc3n[nH]c(C)c3C)c2cc1S(=O)(=O)C(C)(C)C [RIP2 kinase inhibitor 2] (2.5 µM)
0: number of time points (ABL1) | number of time points (AKT1) | number of time points (ALK) | number of time points (ARAF) | number of time points (AURKA) | number of time points (AURKB) | number of time points (AURKC) | number of time points (BLK) | number of time points (BMX) | number of time points (BRAF) | number of time points (BTK)
inactive: kinase-Nluc reporter destabilization hit call (STK38) 0 | kinase-Nluc reporter destabilization hit call (SYK) 0 | kinase-Nluc reporter destabilization hit call (TEC) 0 | kinase-Nluc reporter destabilization hit call (TYK2) 0 | kinase-Nluc reporter destabilization hit call (ULK3) 0 | kinase-Nluc reporter destabilization hit call (YES1) 0 | kinase-Nluc reporter destabilization hit call (ZAK) 0 | kinase-Nluc reporter destabilization hit call (ZAP70) 0
